Measurements published in PubChem BioAssay AID662 (National Center for Advancing Translational Sciences (NCATS), 2007).
Some of the results follow. Further columns of the screen follow, without active or inactive calls. The list favours compounds with an active or inconclusive main result. Words in brackets tell the shape of the fitted curve; partial curves, single points and poor fits give uncertain potencies.

Test: Cell signaling CRE-BLA (Fsk stim)
Details: CHO CRE-bla reporter (cAMP response element driving beta-lactamase), forskolin EC10, beta-lactamase ratio; measured here: 460 nm blue channel
In short: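 The 460nm/530nm emission ratio after CCF4 loading defined %Activity, from which AC50 values were obtained. CRE-bla CHO cells received compound dilution series together with an EC10 level of NKH 477 for 3 hours at 37 degrees Celsius.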

Row | SMILES | AC50
1 | CCc1nc2ccccc2n1Cc1ccc(OC)c(OC)c1 | 12.6 µM [rising, partial curve]
2 | CC(C)NC(=O)N1CC[C@@]2(CCCN(S(=O)(=O)c3ccccc3)C2)C1 | 0.00316 µM [rising, full curve, poor fit]
3 | CCCn1nc(CC(=O)O)c2ccccc2c1=O | 5.01 µM [falling, single point]
4 | COC(=O)c1ccc(COc2ncnc3c(Cl)cc(Cl)cc23)o1 | 6.31 µM [rising, partial curve]
5 | Cc1ccc(S(=O)(=O)/N=C(\CN2CCCCC2)N2CCOCC2)cc1 | 0.251 µM [rising, partial curve, poor fit]
6 | COc1ccc(C(=O)NC(C)c2nc3ccccc3[nH]2)cc1OC (centres undefined) | 10 µM [rising, partial curve]
7 | Cc1cccc(C)c1NC(=O)Cn1c(=O)n(CCCC(=O)NCc2ccco2)c(=O)c2sccc21 | 0.0251 µM [falling, full curve, poor fit]
8 | COc1cc2c(cc1NC(=O)c1ccc3c(c1)OCO3)oc1ccccc12 | 5.01 µM [falling, partial curve]
9 | O=C(CN(Cc1ccc2c(c1)OCO2)C(=O)CNS(=O)(=O)c1ccccc1)NCC1CCCO1 (centres undefined) | 0.00316 µM [falling, full curve]
10 | Cc1ccc(S(=O)(=O)c2cc3c(=O)n4cccc(C)c4nc3n(Cc3ccco3)c2=N)cc1C | 10 µM [rising, partial curve]
11 | O=C1CCCN1CCCN1C(=O)N[C@@H](Cc2ccccc2)C1=O | 0.00316 µM [falling, full curve, poor fit]
12 | CN(C)c1ncc2ncc(=O)n(Cc3cccs3)c2n1 | 10 µM [rising, partial curve]
13 | COc1cccc(-n2c(COc3ccc(C)cc3)nnc2SCC(=O)O)c1 | 12.6 µM [falling, partial curve]
14 | CCOC(=O)N1CCN(C(=O)c2cccn3c(=O)c4sccc4nc23)CC1 | 12.6 µM [rising, single point]
15 | CCN1C(=O)CSC1=NC1C2CC3CC(C2)CC1C3 (centres undefined) | 12.6 µM [rising, single point]
16 | O=C(NCCc1ccccc1)C(c1cccs1)N(C(=O)c1csnn1)C1CC1 (centres undefined) | 1.26 µM [falling, partial curve]
17 | Cc1cc(C(=O)OCC(=O)c2ccc3c(c2)OCCO3)c(C)o1 | 0.158 µM [falling, full curve, poor fit]
18 | O=C(NCCc1ccccc1)C1c2ccccc2C(=O)N1C1CC1 (centres undefined) | 25.1 µM [falling, partial curve]
19 | CCOCCCn1c(=N)c(C(=O)Nc2cc(C)on2)cc2c(=O)n3ccccc3nc21 | 1.58 µM [rising, full curve]
20 | COc1cccc(Cn2c(=O)c(-c3cccs3)nc3cnc(Nc4cccc(OC)c4)nc32)c1 | 2.51 µM [rising, full curve]
21 | COc1ccc(CCNC(=O)c2cc3c(=O)n4cccc(C)c4nc3n(Cc3ccncc3)c2=N)cc1 | 10 µM [rising, partial curve]
22 | O=C(c1ccc(S(=O)(=O)N2CCOCC2)cc1)N1CCc2ccccc2C1 | 2.51 µM [falling, single point]
23 | CCOC(=O)N1CCN(C(=O)CCCn2nc(C)c3sc4ccccc4c3c2=O)CC1 | 10 µM [rising, partial curve]

Quoted from the listing:
COc1cc2c(cc1NC(=O)c1ccc3c(c1)OCO3)oc1ccccc12 – AC50: 5.01 µM [falling, partial curve]
COc1ccc(C(=O)NC(C)c2nc3ccccc3[nH]2)cc1OC (centres undefined) – AC50: 10 µM [rising, partial curve]
COC(=O)c1ccc(COc2ncnc3c(Cl)cc(Cl)cc23)o1 – AC50: 6.31 µM [rising, partial curve]

Going on with the list.

Row | SMILES | AC50
24 | Cc1ccccc1-c1nccc(NCc2cccnc2)n1 | 0.398 µM [rising, full curve, poor fit]
25 | COc1ccc(OC)c(Nc2ncnc3c2cnn3-c2ccccc2)c1 | 12.6 µM [rising, single point]
26 | CCOc1cc(Br)c(C(=O)O)cc1OCC | 10 µM [falling, partial curve]
27 | CCCOc1ccccc1-c1nc2c([nH]1)c(=O)[nH]c(=O)n2C | 12.6 µM [rising, partial curve]
28 | Cc1[nH]c(=O)[nH]c(=O)c1NS(=O)(=O)c1ccc2c(c1)CCCC2 | 25.1 µM [rising, single point]
29 | c1cncc(-c2cccnc2)c1 | 31.6 µM [falling, single point]
30 | Oc1[nH]c2ccccc2c1/C=N/c1nccs1 | 0.631 µM [falling, full curve]
31 | COCCNC(=O)c1cc2c(=O)n3cccc(C)c3nc2n1C | 1.26 µM [rising, partial curve]
32 | Cc1ccc(C)c(Nc2ncnc3nc[nH]c23)c1 | 12.6 µM [rising, partial curve]
33 | CCSc1nc2c(c(=O)[nH]c(=O)n2C)n1C | 20 µM [rising, single point]
34 | Cc1cccc(N2C(N)=C(C#N)C(C#N)(C#N)C2c2ccccc2)c1 (centres undefined) | 10 µM [rising, partial curve]
35 | O=C(Nc1ccc(Cl)cc1)N(Cc1cccs1)Cc1cccs1 | 25.1 µM [falling, single point]
36 | Cc1cc(Cl)cc(C)c1OCC(=O)O | 3.98 µM [falling, partial curve]
37 | COc1ccc(NC(=O)CN2CCC(n3c(C)nc4cc(F)ccc43)CC2)c(OC)c1 | 7.94 µM [rising, partial curve]
38 | COC(=O)C1=C(Cn2cnc3ccccc32)NC(=O)NC1c1cc(C)ccc1C (centres undefined) | 12.6 µM [falling, single point]
39 | CCCCn1c(Oc2ccc(C(=O)OC)cc2)nc2c1c(=O)n(C)c(=O)n2C | 0.2 µM [falling, full curve]
40 | CCOC(=O)C(CC)Sc1nc2c(c(=O)[nH]c(=O)n2C)n1C/C=C(/C)Cl (centres undefined) | 20 µM [rising, single point]
41 | O=C(c1n[nH]c2ccccc12)N1CCN(S(=O)(=O)c2ccc3ccccc3c2)CC1 | 10 µM [falling, single point]
42 | CCOC(=O)c1oc2ccccc2c1NC(=O)COC | 10 µM [rising, partial curve]
43 | CC(C)OCC(O)CSc1ccccn1 (centres undefined) | 5.01 µM [falling, partial curve]
44 | Cc1ccc(N2CCN(c3ccc(C)cc3)C(CC(=O)O)C2=O)cc1 (centres undefined) | 12.6 µM [rising, partial curve]
45 | COc1ccc(OC)c(S(=O)(=O)Nc2cccc(C(C)=O)c2)c1 | 3.16 µM [rising, single point]
46 | CCOC(=O)C1=C(C)OC(N)=C(C(=O)OCC)C1c1cccnc1 (centres undefined) | 12.6 µM [rising, single point]

Row | SMILES | AC50
47 | COC(=O)C1=C(C)NC2=C(C(=O)CCC2)C1c1cccc(C)n1 (centres undefined) | 12.6 µM [rising, partial curve]
48 | Cc1ccc(/C=N/n2c(C)nnc2C)s1 | 0.2 µM [falling, full curve, poor fit]
49 | COC(=O)N1CCC2(CCCN(C(c3ccccc3)c3ccccc3)C2)CC1 | 15.8 µM [rising, partial curve]
50 | CC(=O)NCCNc1ncnc2ccc(-c3ccc4c(c3)OCO4)cc12 | 12.6 µM [rising, partial curve]
51 | CC(=O)c1cccc(NC(=O)c2c(F)c(F)c(F)c(F)c2F)c1 | 0.01 µM [rising, full curve]
52 | CC1(C)Cc2c(c(N3CCOCC3)nc3sc(-c4ccc(C(=O)O)o4)c(N)c23)CO1 | 12.6 µM [rising, partial curve]
53 | COc1cc2c(cc1OC)C(=O)N(C)CC2 | 7.94 µM [rising, partial curve]
54 | Cc1ccc(C)c(Cn2cnc3c(cnn3C(C)(C)C)c2=O)c1 | 25.1 µM [rising, single point]
55 | CN1CCN(S(=O)(=O)c2cccc(C(=O)N(c3ccccn3)C3CCCCC3)c2)CC1 | 3.98 µM [falling, partial curve]
56 | CCOC(=O)C1CCN(c2ncnc3c2[nH]c2cccc(OC)c23)CC1 | 12.6 µM [rising, single point]
57 | CN(C)c1nc(Oc2ccc(/C=N/O)cc2)nc(N(C)C)n1 | 7.94 µM [rising, partial curve]
58 | Oc1c(CN2CCOCC2)cc(COCc2ccccc2)c2cccnc12 | 0.316 µM [rising, full curve]
59 | Cc1ccc(S(=O)(=O)O[C@H]2C[C@@H](C(C)(C)C)CC[C@@H]2c2ccccc2)cc1 | 3.16 µM [rising, single point]
60 | Cc1csc(NC(=O)c2cc3c(s2)-c2ccccc2OC3)n1 | 15.8 µM [rising, partial curve]
61 | COc1ccc(CCn2c(-c3ccco3)nc3nc4ccccc4nc32)cc1 | 10 µM [rising, partial curve]
62 | Cc1cc(C)n2c(SCc3cccs3)nnc2n1 | 15.8 µM [rising, single point]
63 | CCn1c(=O)cc(SCC(=O)N2CCN(C(=O)c3ccco3)CC2)c2ccccc21 | 2 µM [falling, partial curve, poor fit]
64 | COc1ccc(-c2nn3c(-c4ccccc4)nnc3s2)cc1OC | 5.01 µM [rising, partial curve]
65 | COc1ccc(C)cc1NC(=O)CSc1nnc(-c2ccco2)n1Cc1ccco1 | 10 µM [rising, partial curve]
66 | O=C(CN1CCOCC1)Nc1ccc(Oc2ccc(NC(=O)CN3CCOCC3)cc2)cc1 | 2 µM [rising, partial curve]
67 | Clc1ccc(C2=Nn3c(nnc3-c3n[nH]c4c3CCC4)SC2)cc1Cl | 0.501 µM [rising, full curve]
68 | CSc1nsc(SCC(=O)NC2CCCCC2)n1 | 1 µM [falling, full curve, poor fit]
69 | N#Cc1c(N)nc2c(c1-c1ccc3c(c1)OCO3)CCCCCC2 | 5.01 µM [rising, partial curve]
